{"source": "patent US20070142306A1", "about": "“Strontium-based complexes, pharmaceutical compositions and dietetic products” (MEDESIS PHARMA SA, priority 2003, published 2007)", "assay": "Assay of calcium in femoral bones", "assay_type": "in vivo, rat", "details": "femoral bone, 68.2 mg/kg/d strontium metal, rectal, 21 days", "note": "Values joined by “and” are separate entries in the source; they are usually repeats but may differ in a detail not shown here. Identical values can stand only once."}
{"compound": "[Cl-].[Cl-].[Sr+2]", "note": "[Strontium chloride, strontium chloride]", "values": [{"measurement": "Ca concentration, Mean", "setting": "group mean", "result": 70.606, "unit": "mg/g"}, {"measurement": "Ca concentration", "setting": "individual rats, 68.2 mg/kg/day", "result": "77.882 mg/g and 79.211 mg/g and 72.946 mg/g and 57.229 mg/g and 64.538 mg/g and 71.630 mg/g and 70.192 mg/g and 71.221 mg/g"}]}
